Record: PubChem BioAssay AID1259405 (NCATS, 2018)

Purpose: 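Silenced genes that increase secreted GFP made by CHO cells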 (primary screen)
System: Chinese hamster CHO-K1 ovary cells with stable secreted eGFP expression
Reagent: single siRNA against mouse genes, 0.8 pmol siRNA per well (2 µl of 400 nM stock)
Timing: 3 days
Measured: 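Percent of the per-plate non-targeting control median for intracellular GFP per well by laser scanning cytometry and for cell viability by ATP luminescence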
Direction: GFP, % of control: higher = more GFP per well, higher productivity; viability (ATP), % of control: higher = more viable cells (more ATP)
Hit rule: 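Called active when intracellular GFP, relative to negative control, is at or above 120%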
Here is a random part of about 50,000 reagents. In the full data, about 4,000 (8%) are marked active. 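Mouse siRNA library applied to hamster cells; one well for each siRNA.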 Reagents against one gene are numbered here.

gene symbol,reagent no.,"GFP, % of control","viability (ATP), % of control",activity call
"Fam43a (family with sequence similarity 43, member A)",1,75.5,50.7,inactive
"Fam43a (family with sequence similarity 43, member A)",2,62.2,82.4,inactive
"Fam43a (family with sequence similarity 43, member A)",3,102,96.3,inactive
Ncf1 (neutrophil cytosolic factor 1),1,97.9,89.1,inactive
Ncf1 (neutrophil cytosolic factor 1),2,82.2,90.5,inactive
Ncf1 (neutrophil cytosolic factor 1),3,48.4,60.2,inactive
Snn (stannin),1,93.3,90.2,inactive
Snn (stannin),2,96,65.6,inactive
Snn (stannin),3,44.5,60.9,inactive
Or4g17 (olfactory receptor family 4 subfamily G member 17),1,56,52.1,inactive
Or4g17 (olfactory receptor family 4 subfamily G member 17),2,129,68.3,active
Or4g17 (olfactory receptor family 4 subfamily G member 17),3,88.9,95.3,inactive
Echdc3 (enoyl Coenzyme A hydratase domain containing 3),1,55.2,60.6,inactive
Echdc3 (enoyl Coenzyme A hydratase domain containing 3),2,63.4,95.2,inactive
Echdc3 (enoyl Coenzyme A hydratase domain containing 3),3,78.6,76.4,inactive
Heg1 (heart development protein with EGF-like domains 1),1,44.1,48,inactive
Heg1 (heart development protein with EGF-like domains 1),2,88.8,48.4,inactive
Heg1 (heart development protein with EGF-like domains 1),3,53.9,48.8,inactive
Heg1 (heart development protein with EGF-like domains 1),4,71.2,93.1,inactive
Heg1 (heart development protein with EGF-like domains 1),5,54.6,52,inactive
Heg1 (heart development protein with EGF-like domains 1),6,75,80.4,inactive
Pld1 (phospholipase D1),1,97.8,85.1,inactive
Pld1 (phospholipase D1),2,103,81.1,inactive
Pld1 (phospholipase D1),3,89.2,103,inactive
Ctnnb1 (catenin beta 1),1,66.5,82.1,inactive
Ctnnb1 (catenin beta 1),2,83.9,84.7,inactive
Casp8ap2 (caspase 8 associated protein 2),1,50.4,47.6,inactive
Casp8ap2 (caspase 8 associated protein 2),2,65.5,77.2,inactive
Casp8ap2 (caspase 8 associated protein 2),3,110,90.1,inactive
"Grm7 (glutamate receptor, metabotropic 7)",1,69.2,79.2,inactive
"Grm7 (glutamate receptor, metabotropic 7)",2,117,85.8,inactive
"Grm7 (glutamate receptor, metabotropic 7)",3,77.6,69.9,inactive
Prok2 (prokineticin 2),1,66.2,75.4,inactive
Prok2 (prokineticin 2),2,63.9,59,inactive
Prok2 (prokineticin 2),3,72.7,91.2,inactive
Hoxa3 (homeobox A3),1,65.4,105,inactive
Hoxa3 (homeobox A3),2,94.3,69.9,inactive
Hoxa3 (homeobox A3),3,69.1,105,inactive
Ctnnal1 (catenin alpha like 1),1,84,79.3,inactive
Ctnnal1 (catenin alpha like 1),2,82.9,77.5,inactive
Ctnnal1 (catenin alpha like 1),3,140,88.7,active
Dpp8 (dipeptidylpeptidase 8),1,90.1,66.7,inactive
Dpp8 (dipeptidylpeptidase 8),2,55.5,43.2,inactive
Dpp8 (dipeptidylpeptidase 8),3,82.2,55.3,inactive
"Alpl (alkaline phosphatase, liver/bone/kidney)",1,79.5,100,inactive
"Alpl (alkaline phosphatase, liver/bone/kidney)",2,82.7,88.5,inactive
"Alpl (alkaline phosphatase, liver/bone/kidney)",3,56.1,53.3,inactive
"Phlda3 (pleckstrin homology like domain, family A, member 3)",1,95.8,90.5,inactive
"Phlda3 (pleckstrin homology like domain, family A, member 3)",2,56.6,57.9,inactive
"Phlda3 (pleckstrin homology like domain, family A, member 3)",3,66,132,inactive
Cisd2 (CDGSH iron sulfur domain 2),1,84,85,inactive
Cisd2 (CDGSH iron sulfur domain 2),2,89.5,93.9,inactive
Cisd2 (CDGSH iron sulfur domain 2),3,95.1,64.3,inactive
Btnl2 (butyrophilin-like 2),1,52.6,64.5,inactive
Btnl2 (butyrophilin-like 2),2,63.9,76.5,inactive
Btnl2 (butyrophilin-like 2),3,109,76,inactive
Stard7 (StAR related lipid transfer domain containing 7),1,76.6,72.3,inactive
Stard7 (StAR related lipid transfer domain containing 7),2,37.3,33.6,inactive
Stard7 (StAR related lipid transfer domain containing 7),3,65.5,60.5,inactive
"Zer1 (zyg-11 related, cell cycle regulator)",1,85.9,108,inactive
"Zer1 (zyg-11 related, cell cycle regulator)",2,85.7,88.2,inactive
"Zer1 (zyg-11 related, cell cycle regulator)",3,142,119,active
Npas1 (neuronal PAS domain protein 1),1,95.2,146,inactive
Npas1 (neuronal PAS domain protein 1),2,145,94.3,active
Npas1 (neuronal PAS domain protein 1),3,0,125,inactive
Svbp (small vasohibin binding protein),1,30,21.2,inactive
Svbp (small vasohibin binding protein),2,81.8,67.1,inactive
Svbp (small vasohibin binding protein),3,49.5,73,inactive
Lpcat4 (lysophosphatidylcholine acyltransferase 4),1,78.4,102,inactive
Lpcat4 (lysophosphatidylcholine acyltransferase 4),2,101,80.1,inactive
Cyb5r4 (cytochrome b5 reductase 4),1,72.7,94.5,inactive
Cyb5r4 (cytochrome b5 reductase 4),2,123,83.9,active
Cyb5r4 (cytochrome b5 reductase 4),3,16.2,22,inactive
Nol4l (nucleolar protein 4-like),1,117,57.4,inactive
Nol4l (nucleolar protein 4-like),2,69.5,84.4,inactive
Nol4l (nucleolar protein 4-like),3,172,151,active
4930542C12Rik (RIKEN cDNA 4930542C12 gene),1,73.4,64,inactive
4930542C12Rik (RIKEN cDNA 4930542C12 gene),2,56.9,63.9,inactive
4930542C12Rik (RIKEN cDNA 4930542C12 gene),3,97.7,86.9,inactive
Or5al7 (olfactory receptor family 5 subfamily AL member 7),1,72.2,81.5,inactive
Or5al7 (olfactory receptor family 5 subfamily AL member 7),2,109,59.5,inactive
Or5al7 (olfactory receptor family 5 subfamily AL member 7),3,87.8,66.2,inactive
Dpt (dermatopontin),1,57.1,96.1,inactive
Dpt (dermatopontin),2,48.9,81,inactive
Vamp2 (vesicle-associated membrane protein 2),1,91.8,84.9,inactive
Vamp2 (vesicle-associated membrane protein 2),2,111,123,inactive
Vamp2 (vesicle-associated membrane protein 2),3,87.9,73.3,inactive
"Dpm2 (dolichyl-phosphate mannosyltransferase subunit 2, regulatory)",1,86.2,101,inactive
"Dpm2 (dolichyl-phosphate mannosyltransferase subunit 2, regulatory)",2,36.4,46.1,inactive
Ccdc198 (coiled-coil domain containing 198),1,70.9,75.9,inactive
Ccdc198 (coiled-coil domain containing 198),2,93.6,83,inactive
Ccdc198 (coiled-coil domain containing 198),3,71,72.6,inactive
Sqle (squalene epoxidase),1,76.9,102,inactive
Sqle (squalene epoxidase),2,79.8,72.2,inactive
Pgls (6-phosphogluconolactonase),1,58.2,61.7,inactive
Pgls (6-phosphogluconolactonase),2,129,62.3,active
Pgls (6-phosphogluconolactonase),3,86.9,66.6,inactive
Vmn1r75 (vomeronasal 1 receptor 75),1,67.7,41.3,inactive
Vmn1r75 (vomeronasal 1 receptor 75),2,102,83.4,inactive
Vmn1r75 (vomeronasal 1 receptor 75),3,34.6,50.4,inactive
Gprin1 (G protein-regulated inducer of neurite outgrowth 1),1,70.8,72.4,inactive
Gprin1 (G protein-regulated inducer of neurite outgrowth 1),2,107,73.4,inactive
Gprin1 (G protein-regulated inducer of neurite outgrowth 1),3,95.1,87.5,inactive
Cfap65 (cilia and flagella associated protein 65),1,96.6,62.3,inactive
Cfap65 (cilia and flagella associated protein 65),2,65.8,71.3,inactive
Cfap65 (cilia and flagella associated protein 65),3,56.8,56.3,inactive
Rad51d (RAD51 paralog D),1,100,129,inactive
Rad51d (RAD51 paralog D),2,92,72.7,inactive

Records listed so far marked active (7):
gene symbol,reagent no.,"GFP, % of control","viability (ATP), % of control",activity call
Or4g17 (olfactory receptor family 4 subfamily G member 17),2,129,68.3,active
Ctnnal1 (catenin alpha like 1),3,140,88.7,active
"Zer1 (zyg-11 related, cell cycle regulator)",3,142,119,active
Npas1 (neuronal PAS domain protein 1),2,145,94.3,active
Cyb5r4 (cytochrome b5 reductase 4),2,123,83.9,active
Nol4l (nucleolar protein 4-like),3,172,151,active
Pgls (6-phosphogluconolactonase),2,129,62.3,active
